Structures can show the parent of a compound that is named as a salt. Some results were stated once for a whole list of compounds, not compound by compound.
Test: Stability comparison under severe conditions (0.3% hydrogen peroxide, 80° C., content by HPLC)
Type: physicochemical
Settings: 1 mg/mL in 0.3% hydrogen peroxide, chamber at 80° C., listed as paroxetine hydrochloride
Experimental: Each of the drugs shown in Table 5 was completely dissolved in a 0.3% hydrogen peroxide solution at a concentration of 1 mg/mL. While storage under stressed conditions at 80° C., changes in the contents of the drugs were monitored. The 0.3% hydrogen peroxide solution is a solution commonly used to quickly determine the stability of drugs and provides stressed conditions for artificial acceleration of the oxidation of the drugs. The content analysis was conducted by HPLC in accordance with the paroxetine content analysis defined in USP.

With `Fc1ccc([C@@H]2CCNC[C@H]2COc2ccc3c(c2)OCO3)cc1` [Paroxetine HCl, paroxetine hydrochloride] the “Drug content, 48 hrs” value (48 hrs) was no more than 54% and the “Drug content, 120 hrs” value (120 hrs) was no more than 15%.

Reference: patent publication US20060063747A1, “Paroxetine cholate or cholic acid derivative salts, and composition comprising paroxetine and cholic acid or derivative thereof” (priority 2004, published 2006)
